Laboratory results as given in article PMC4830575.
These are yes or no findings as the source states them, for the method shown. Binding seen in cells or lysates may run through a third protein. Binding can be weak; no strength is given. Tags and fused reporters may be left off the sequences shown. Values belong to the molecule of their own block, whether it stands above or below them.

Experiments:
[1] = target: T1, Bazooka endogenously tagged with GFP (Baz::GFP) (Drosophila (endogenous in embryos and wing imaginal discs)) (UniProt O96782); assay: co-IP; Baz::GFP embryo extract precipitated with a Baz antibody; Western blot
T1 sequence: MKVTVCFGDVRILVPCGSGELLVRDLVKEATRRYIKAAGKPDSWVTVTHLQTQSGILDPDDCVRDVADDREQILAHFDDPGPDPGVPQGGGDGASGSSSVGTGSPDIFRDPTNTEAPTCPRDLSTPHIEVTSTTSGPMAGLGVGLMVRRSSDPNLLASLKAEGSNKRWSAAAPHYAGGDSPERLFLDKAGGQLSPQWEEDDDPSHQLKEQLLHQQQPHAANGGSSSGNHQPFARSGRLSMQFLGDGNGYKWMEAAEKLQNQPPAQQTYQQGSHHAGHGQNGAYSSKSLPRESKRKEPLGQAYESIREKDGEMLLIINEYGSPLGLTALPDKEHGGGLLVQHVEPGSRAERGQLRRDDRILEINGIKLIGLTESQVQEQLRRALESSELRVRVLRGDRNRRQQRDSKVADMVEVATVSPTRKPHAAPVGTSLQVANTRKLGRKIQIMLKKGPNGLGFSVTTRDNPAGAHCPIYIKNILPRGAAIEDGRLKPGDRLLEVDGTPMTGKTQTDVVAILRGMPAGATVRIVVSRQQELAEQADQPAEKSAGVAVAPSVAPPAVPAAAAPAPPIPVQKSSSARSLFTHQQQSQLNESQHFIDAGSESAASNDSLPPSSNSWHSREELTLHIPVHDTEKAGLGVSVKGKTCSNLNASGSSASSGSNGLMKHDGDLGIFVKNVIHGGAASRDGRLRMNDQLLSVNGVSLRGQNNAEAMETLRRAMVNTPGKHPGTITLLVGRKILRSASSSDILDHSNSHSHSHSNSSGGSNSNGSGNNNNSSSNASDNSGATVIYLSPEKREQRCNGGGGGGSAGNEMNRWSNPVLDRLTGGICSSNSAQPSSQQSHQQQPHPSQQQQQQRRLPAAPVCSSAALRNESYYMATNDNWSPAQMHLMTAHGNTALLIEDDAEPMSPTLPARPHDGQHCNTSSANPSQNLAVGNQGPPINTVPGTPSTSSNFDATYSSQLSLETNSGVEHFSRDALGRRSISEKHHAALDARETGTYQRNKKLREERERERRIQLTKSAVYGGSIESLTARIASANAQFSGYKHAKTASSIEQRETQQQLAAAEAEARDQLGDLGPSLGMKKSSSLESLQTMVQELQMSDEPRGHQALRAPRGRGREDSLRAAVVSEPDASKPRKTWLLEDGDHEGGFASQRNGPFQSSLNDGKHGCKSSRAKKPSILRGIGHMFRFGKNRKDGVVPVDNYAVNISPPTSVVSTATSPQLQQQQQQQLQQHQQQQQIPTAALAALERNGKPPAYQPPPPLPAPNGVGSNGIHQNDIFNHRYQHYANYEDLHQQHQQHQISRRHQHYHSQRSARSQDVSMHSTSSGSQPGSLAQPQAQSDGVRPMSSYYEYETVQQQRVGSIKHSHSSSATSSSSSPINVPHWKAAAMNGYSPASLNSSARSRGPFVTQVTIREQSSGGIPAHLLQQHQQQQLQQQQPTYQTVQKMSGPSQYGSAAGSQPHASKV

[2] = target: Magi (Drosophila melanogaster (endogenous in embryos and wing imaginal discs)); assay: co-IP; Baz::GFP embryo lysate (1% Triton X-100, 150 mM NaCl), precipitated with the Magi polyclonal antibody and protein-A microbeads, washed in 150 mM NaCl, 1% NP-40; Western blot
[3] = target: Magi (Drosophila melanogaster (endogenous in embryos and wing imaginal discs)); assay: proximity ligation; Duolink PLA on fixed third instar wing imaginal discs; anti-GFP with anti-Magi or anti-aPKC antibodies; controls with one antibody only
[4] = target: Magi overexpressed with apterous-GAL4 (Magi::Cherry) (Drosophila); assay: as above

B1: aPKC (enzyme, UniProt A1Z9X0 1-606)
chain: MQKMPSQILNDGSSVSLNSASMNMANTPNSITVKTAYNGQIIITTINKNISYEELCYEIRNICRFPLDQPFTIKWVDEENDPCTISTKMELDEAIRLYEMNFDSQLVIHVFPNVPQAPGLSCDGEDRSIYRRGARRWRKLYRVNGHIFQAKRFNRRAFCAYCQDRIWGLGRQGFKCIQCKLLVHKKCHKLVQKHCTDQPEPLVKERAEESSDPIPVPLPPLPYEAMSGGAEACETHDHAHIVAPPPPEDPLEPGTQRQYSLNDFELIRVIGRGSYAKVLMVELRRTRRIYAMKVIKKALVTDDEDIDWVQTEKHVFETASNHPFLVGLHSCFQTPSRLFFVIEFVRGGDLMYHMQRQRRLPEEHARFYAAEISLALNFLHEKGIIYRDLKLDNVLLDHEGHIKLTDYGMCKEGIRPGDTTSTFCGTPNYIAPEILRGEDYGFSVDWWALGVLLYEMLAGRSPFDLAGASENPDQNTEDYLFQVILEKTIRIPRSLSVRAASVLKGFLNKNPADRLGCHRESAFMDIVSHPFFKNMDWELLERKQVTPPFKPRLDSDRDLANFPPEFTGEAVQLTPDDDHVIDNIDQSEFEGFEYVNPLLMSLEDCV
binding [2]: binds

B3: Bazooka endogenously tagged with GFP (Baz::GFP) (protein, UniProt O96782 1-1464)
chain: T1 sequence
binding [3]: binds
binding [4]: binds
binding [2]: binds

B4: Discs-large (protein, UniProt P31007 1-970)
chain: MPVKKQEAHRALELLEDYHARLSEPQDRALRIAIERVIRIFKSRLFQALLDIQEFYELTLLDDSKSIQQKTAETLQIATKWEKDGQAVKIADFIKSSNLNRNCAYEFNNDASSNQTNQSALNQNPIANNVSAQAQAEALSRTFKSELEEILNQRMRIESDTENAKEPTVEQQQKQQQAQQRSSRSPQQQNPQQQQGSKSRSGSQTVNGDDSWLYEDIQLERGNSGLGFSIAGGTDNPHIGTDTSIYITKLISGGAAAADGRLSINDIIVSVNDVSVVDVPHASAVDALKKAGNVVKLHVKRKRGTATTPAAGSAAGDARDSAASGPKVIEIDLVKGGKGLGFSIAGGIGNQHIPGDNGIYVTKLMDGGAAQVDGRLSIGDKLIAVRTNGSEKNLENVTHELAVATLKSITDKVTLIIGKTQHLTTSASGGGGGGLSSGQQLSQSQSQLATSQSQSQVHQQQHATPMVNSQSTEPGSRYASTNVLAAVPPGTPRAVSTEDITREPRTITIQKGPQGLGFNIVGGEDGQGIYVSFILAGGPADLGSELKRGDQLLSVNNVNLTHATHEEAAQALKTSGGVVTLLAQYRPEEYNRFEARIQELKQQAALGAGGSGTLLRTTQKRSLYVRALFDYDPNRDDGLPSRGLPFKHGDILHVTNASDDEWWQARRVLGDNEDEQIGIVPSKRRWERKMRARDRSVKFQGHAAANNNLDKQSTLDRKKKNFTFSRKFPFMKSRDEKNEDGSDQEPFMLCYTQDDANAEGASEENVLSYEAVQRLSINYTRPVIILGPLKDRINDDLISEYPDKFGSCVPHTTRPKREYEVDGRDYHFVSSREQMERDIQNHLFIEAGQYNDNLYGTSVASVREVAEKGKHCILDVSGNAIKRLQVAQLYPVAVFIKPKSVDSVMEMNRRMTEEQAKKTYERAIKMEQEFGEYFTGVVQGDTIEEIYSKVKSMIWSQSGPTIWVPSKESL
binding [2]: no binding

Second part, the molecule after the results:

binding [1]: binds
Molecule: Magi

binding [3]: binds
B2: aPKC::GFP (enzyme, UniProt A1Z9X0 1-606)
chain: B1 chain
